The values that follow come from patent publication US20250036036A1, “ELECTROPHOTOGRAPHIC PHOTOCONDUCTOR, ELECTROPHOTOGRAPHIC PHOTOCONDUCTOR CARTRIDGE, IMAGE FORMATION DEVICE, AND COMPOUND” (MITSUBISHI CHEMICAL CORPORATION, priority 2022, published 2025).

The nature of this data set: Electrical properties: residual potential (VL) of single-layered photoconductor with protective layer. The note with it: 780 nm 1.3 μJ/cm^2, 60 ms after irradiation, 25° C., 50% RH.

As for `C=CC(=O)OCCOC(=O)CCC(=O)OCC(CC(C)C)N1C(=O)c2ccc3c4c(ccc(c24)C1=O)C(=O)N(C(COC(=O)CCC(=O)OCCOC(=O)C=C)CC(C)C)C3=O` (centres unmarked) [Comparative compound 2], the “Residual potential VL (V)” value (protective layer: electron transporting compound 100 parts / M9050 100 parts, THF/2-propanol 3/7, V0 +700 V) turned out to be 205 V. Consider `C=C(C)C(=O)OCC(COC(=O)C(=C)C)OC(=O)CCC(=O)OCC(CC(C)C)N1C(=O)c2ccc3c4c(ccc(c24)C1=O)C(=O)N(CC(CC)CCCC)C3=O` (centres unmarked) [Compound 1], for which the “Residual potential VL (V)” value (protective layer: electron transporting compound 100 parts / M9050 50 parts, toluene/2-propanol 3/7, V0 +700 V) is 309 V.
